Assay results taken from PubChem BioAssay AID602313 (National Center for Advancing Translational Sciences (NCATS), 2012).
Among all 390,000 compounds or so, about 760 (0.19%) were called active. The inconclusive results got no clear call from the source; some entries with a clear call stand among them for comparison. Calls come from the whole dose curve; as a rule, active = well fitted inhibition curve with a large enough effect; inconclusive = small, poorly fitted or top-dose-only effect; inactive = flat fitted curve, though single readings scatter. A potency beside an inconclusive call is a rough fit, not a confirmed value.

experiment: qHTS for Inhibitors of Vif-A3F Interactions: qHTS; settings: HeLa A3F-eYFP + Vif (tagged APOBEC3F with the HIV-1 protein that degrades it), YFP fluorescence increase; series mostly up to 46.1 µM; note: nearly all actives have a fitted effect of over 65% in size
Outline: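 HeLa cells stably expressing Vif plus C-terminally eYFP-tagged A3F were seeded, incubated overnight at 37 deg C, dosed with compound, incubated overnight again at 37 deg C. Yellow fluorescence (Ex 488/Em 500-530) reported blocked Vif-mediated A3F-eYFP degradation.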
Potency is the fitted concentration of half-maximal effect.

| SMILES | Potency |
| --- | --- |
| O=C(O)CCCN1C(=O)/C(=C/c2cn(-c3ccccc3)nc2-c2cccs2)SC1=S | inconclusive: 35.5 µM [inhibitor, single point] |
| Cc1nccn1CCCNC(=O)CC1C(=O)NCCN1Cc1ccc(F)cc1Cl (stereo not drawn) | inconclusive: 20 µM [inhibitor, partial curve, poor fit] |
| O=C(NNc1ncnc2c1cnn2-c1cccc(Cl)c1)c1ccco1 | inconclusive: 35.5 µM [inhibitor, single point] |
| O=C(CCN1CCCCCC1)c1ccccc1 | inactive |
| O=C(COC(=O)c1ccccc1)Nc1ncc([N+](=O)[O-])s1 | inactive |
| C/C(N)=C(/C#N)C(=O)CSc1nc2ccccc2c(=O)n1Cc1ccc(C)cc1 | inconclusive: 8.91 µM [inhibitor, partial curve, poor fit] |
| CN1CCN(c2ccc(NC(=O)CSc3nnnn3-c3ccccc3Cl)cc2)CC1 | inconclusive: 15.8 µM [inhibitor, single point] |
| CCOC(=O)c1c(-c2ccccc2)csc1NC(=O)/C(C#N)=C\c1ccc(O)c(OC)c1 | inconclusive: 3.55 µM [inhibitor, partial curve, poor fit] |
| c1ccc(-c2cn3ccccc3n2)cc1 | inactive |
| O=C(CCc1nc(-c2ccccc2)no1)NCC1CCCO1 (stereo not drawn) | inconclusive: 12.6 µM [inhibitor, partial curve, poor fit] |
| CN(C)CCNC(=O)c1ccc(Cn2c(SCc3ccc(F)cc3)nc3cccnc32)cc1 | inconclusive: 8.91 µM [inhibitor, partial curve, poor fit] |
| O=C(C1=C(O)C(=O)N(CC2CCCO2)C1c1ccc(Cl)cc1)c1ccco1 (stereo not drawn) | inconclusive: 6.31 µM [inhibitor, single point] |
| COc1ccc(Cl)cc1NC(=O)Cn1c(=O)oc2cc(S(=O)(=O)N3CCCCCC3)ccc21 | inconclusive: 5.01 µM [inhibitor, full curve, poor fit] |
| COc1ccc(OC)c(Cc2nnc(CCC(=O)N3CCCCCC3)o2)c1 | inconclusive: 1.26 µM [inhibitor, partial curve, poor fit] |
| COc1ccc2ccccc2c1/C=N/NC(=S)NCCN1CCOCC1 | inconclusive: 5.62 µM [inhibitor, single point] |
| Cc1ccc(CNC(=O)C(Cc2ccccc2)NS(=O)(=O)c2cccs2)cc1 (stereo not drawn) | inactive |
| Cc1ccc2cc(CN(C(=O)c3ccco3)c3cccc(C)c3C)c(=O)[nH]c2c1 | inconclusive: 35.5 µM [inhibitor, single point] |
| FC(F)(F)c1cc(N2CCOCC2)nc(-c2ccccc2)n1 | inactive |

Looked up one by one from above, 2 records:

| SMILES | Potency |
| --- | --- |
| O=C(O)CCCN1C(=O)/C(=C/c2cn(-c3ccccc3)nc2-c2cccs2)SC1=S | inconclusive: 35.5 µM [inhibitor, single point] |
| O=C(CCN1CCCCCC1)c1ccccc1 | inactive |
